# Results taken from the supplement of paper PMC12024529.
# Where a name gives a salt, the structure may show the parent alone. This is one part of the list. Baselines shift from plate to plate; read single values as rough.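 The cells are HEK293 lines stably expressing B-domain-deleted factor VIII fused to Gaussia luciferase, either wild type or a misfolding-prone missense mutant. Each score is mean luminescence from triplicate wells minus the DMSO mean, divided by the DMSO standard deviation; a score of 2 or more counts as a hit, and low scores may reflect lower secretion or poorer cell viability.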
# System: HEK293 p.N1941S BDD-FVIII-Gluc
# Experiment: secreted FVIII-Gluc luciferase Z-score vs DMSO control; higher = more FVIII-Gluc secretion
# Conditions: 5 µM; 24 h
row,Compound,secreted FVIII-Gluc luciferase Z-score
1,CCCN(CCc1cccs1)[C@H]1CCc2c(O)cccc2C1 [Rotigotine],inactive: 0.471
2,CC(COc1ccccc1)N(CCCl)Cc1ccccc1 (stereo unspecified) [Phenoxybenzamine HCl],inactive: -0.951
3,CCOc1ccc2nc(S(N)(=O)=O)sc2c1 [Ethoxzolamide],inactive: 1.06
4,CCN(CC)CCNC(C(=O)OCCC(C)C)c1ccccc1 (stereo unspecified) [Camylofin Chlorhydrate],inactive: 1.02
5,NCCCCCC(=O)O [Aminocaproic acid (Amicar)],inactive: 0.0498
6,CCCCC(=O)O[C@]1(C(=O)CO)[C@@H](C)C[C@H]2[C@@H]3CCC4=CC(=O)C=C[C@]4(C)[C@@]3(F)[C@@H](O)C[C@@]21C [Betamethasone valerate (Betnovate)],active: 5.95
7,CCOC(=O)CC(=O)N1CCSC1COc1ccccc1OC (stereo unspecified) [Moguisteine],inactive: 0.00787
8,CN(C)CCN(Cc1ccccc1)c1ccccn1 [Tripelennamine HCl],inactive: -0.374
9,COc1cc2c(cc1Cc1cccc(Cl)c1F)c(=O)c(C(=O)O)cn2[C@H](CO)C(C)C [Elvitegravir (GS-9137)],inactive: -1.08
10,O=C1NC(=O)C(c2ccccc2)(c2ccccc2)N1 [Phenytoin (Lepitoin)],inactive: -0.908
11,O=C(CCCN1CCN(c2ccccn2)CC1)c1ccc(F)cc1 [Azaperone],inactive: -0.0655
